Measured values reported in patent publication US6548292B1, “Bacterial plasmid having genes encoding enzymes for the degradation of aromatic compounds” (E. I. du Pont de Nemours and Company, priority 1999, dated 2003).
The name of at least one read-out is uncertain. At least one compound was matched to its structure with a doubt left.

Tested on: Pseudomonas strain CT14
Test: Carbon source utilization for the strain CT14 (growth on S12 agar with the compound as sole source of carbon and energy)
Type: cell-based
Conditions: approximately 25° C.

Structure (SMILES) | Growth on Carbon Source
O=Cc1ccccc1 [benzaldehyde] | +
CC(C)c1ccccc1 [cumene] | −
Cc1cccc(O)c1 [m-cresol] | −
Cc1cccc(C(=O)O)c1 [m-toluate] | +
Cc1ccccc1O [o-cresol] | −
Cc1ccc(C)cc1 [p-xylene] | −
